Assay results taken from patent EP0354611B1, “Synthtic antigens useful in the diagnosis of malaria induced by plasmodium vivax” ([…] S.p.A., priority 1988, dated 1990).
Part of at least one peptide drawing is inferred or uncertain, most often the ends. Where no end group is shown, it is not given here.

Tested on: anti-CSP antibodies of P.vivax
Test: ELISA for detecting antisporozoite antibodies of Plasmodium vivax in human serum samples
Type: binding
Settings: classical ELISA; peptide adsorbed on the plate (3ug/ml); serum samples originating from endemic malaria zones diluted 1:100

DRADGQPAGDRADGQPAGDRADGQPAGDRADGQPAG [V4, (Asp-Arg-Ala-Asp-Gly-Gln-Pro-Ala-Gly)n]
detecting anti-CSP antibodies of P.vivax in human blood samples: negative result
